From PubChem BioAssay AID2685 (National Center for Advancing Translational Sciences (NCATS), 2010)
Screen size: about 320,000 compounds; about 2,100 (0.66%) were called active. This list was built around the results that the source calls inconclusive (neither active nor inactive); the mix of calls is not that of the screen. Calls come from the whole dose curve; as a rule, active = well fitted inhibition curve with a large enough effect in the signal ratio, with a control signal flat (not every such curve was filed as active); inconclusive = small, poorly fitted or top-dose-only effect, or effect the other way, or a change in a side signal; inactive = flat fitted curve, though single readings scatter; the % refers to the signal ratio. Potencies of inconclusive entries are doubtful fits and often do not repeat.

Test: qHTS Assay for Lipid Storage Modulators in Drosophila S3 Cells
Details: BODIPY lipid droplet fluorescence, 18-24 h, cells fed with added oleic acid; lipid storage change, negative = inhibition: at 46.1 µM (top of the series) unless noted
How it was run: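 Drosophila S3 cells loaded with oleic acid (400 uM, as added) and compounds at several concentrations; lipid droplets imaged by 488-nm laser-scanning cytometry, 500–530 nm intensity and object ratio to cell channel. Percent activity normalized to 20 uM Triacsin C.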
% is set by controls: 0 for no effect and ±100 for the full control effect; potency is the fitted concentration of half-maximal effect.

Compound	Potency	lipid storage change, negative = inhibition
O=C(Cn1cnc2c(cnn2-c2ccc(Cl)cc2)c1=O)N1CCN(c2ccccc2)CC1	inconclusive: 0.0651 µM [falling, full curve, poor fit]	
Cc1ccc(N2CC(C(=O)OCC(=O)Nc3ccc(Cl)cc3)CC2=O)cc1 (centres undefined)		inconclusive: 8.7%
Cc1c(CCC(=O)N[C@@H](C)C(=O)O)c(=O)oc2cc3occ(-c4ccccc4)c3cc12		inconclusive: 327%
CCCNC(=O)CN1CCN(S(=O)(=O)c2ccc(Br)s2)CC1		inconclusive: -19.4%
[N-]=[N+]=CC(=O)CNC(=O)[C@@H](Cc1ccccc1)N1C(=O)c2ccccc2C1=O		inconclusive: -15.1%
CSc1nc(N(C)NC(=O)c2ccccc2)c2ccccc2n1	inconclusive: 0.461 µM [activator, full curve]	
Cc1ccc(C(=O)CCNc2ccccc2)o1		inconclusive: 13.8%
O=C(Nc1nc2cc3c(cc2s1)OCO3)C1=COCCO1		inconclusive: 14%
O=C(O)COc1ccc(-c2nnn(CC(=O)O)n2)cc1	inconclusive: 23.1 µM [falling, single point]	
COc1ccc(C(=O)Nc2ccc(NC(=O)c3cccs3)cc2)cc1Cl		inconclusive: 8.31%
CCc1nnc(NC(=O)CSCc2cc(=O)n3nc(C(C)C)sc3n2)s1		inconclusive: 62.6%
N#Cc1ccc(S(=O)(=O)N2CCN(C(=O)[C@@H]3CCCN3C(=O)c3cccs3)CC2)cc1	inconclusive: 2.31 µM [falling, partial curve, poor fit]	
CC(C)(C)NC(=O)C1CC(=O)OC12CCCCC2 (centres undefined)		inconclusive: -14.8%
CCN(CC)S(=O)(=O)c1ccc2c(c1)nc(SCC(=O)NC1CC1)n2-c1ccccc1OC	inconclusive: 4.11 µM [activator, partial curve, poor fit]	
CN1CCN(C(=O)C(N)Cc2ccccc2)CC1 (centres undefined)	inconclusive: 0.164 µM [falling, full curve, poor fit]	
COc1cccc(CN2CCN(Cc3nc(C(C)C)cs3)CC2CCO)c1 (centres undefined)		inconclusive: -29.2%
Cc1ccc2c(c1)c1nnc(SCC(=O)Nc3cccc(Cl)c3C)nc1n2CC(=O)O		inconclusive: 33.7%
COc1ccc(S(=O)(=O)N2CCCCC2)cc1NC(=O)c1cncc(Br)c1		inconclusive: 4.57%
Cn1c2c(c(=O)n(C)c1=O)C1(C(=O)Nc3ccccc31)C(C#N)=C(N)O2 (centres undefined)		inconclusive: -63.1%
C=CCn1c(=S)[nH]c2sccc2c1=O	inconclusive: 0.731 µM [rising, single point]	
O=C(CSc1nc2c(c(=O)n1-c1ccc(F)cc1)SCC2)NCc1ccco1		inconclusive: 25.9%
CCOc1ccc(C(=O)Nc2ccncc2)cc1		inconclusive: -2.94%
O=C(Nc1ccc(Cl)cc1)c1ccc2c(c1)OCO2	inconclusive: 4.61 µM [activator, single point]	
Cc1cccc(NC(=O)CN2CCc3cc4c(cc3C2C)OCCCO4)c1 (centres undefined)		inconclusive: -30.9%
Cc1ncc(CN2CCC(C(=O)Nc3ccc(Oc4cccnc4)cc3)CC2)cn1	inconclusive: 6.51 µM [activator, full curve]	

Compound	Potency	lipid storage change, negative = inhibition
COc1ccc2c(c1)c(C(=O)N/N=C/c1ccc(Cl)cc1)c(C)n2C		inconclusive: 24.6%
CCOC(=O)c1ccc(NC(=O)Cn2nnc(-c3ccccc3)n2)cc1	inconclusive: 4.61 µM [falling, full curve, poor fit]	
CC(=O)c1sc(NC(=O)c2cccc(N3C(=O)CCC3=O)c2)nc1-c1ccccc1		inconclusive
CCC(C)[C@H](NC(=O)NCc1ccccc1Cl)C(=O)O (some centres undefined)	active: 29.1 µM	
O=C(NCc1ccccc1)NC12CC3CC(CC(C3)C1)C2		inconclusive: 6.9%
Nc1cc(=O)[nH]n1C1CCN(c2ccccc2)CC1		inconclusive: -120%
COc1ccc(CNC(=O)C(=O)NCCC2CCCCN2S(=O)(=O)c2ccccc2)cc1 (centres undefined)		inconclusive: -27.6%
O=C1CC(c2ccc(F)cc2)Sc2nc(-c3ccccc3)c(-c3ccccc3)n21 (centres undefined)		inconclusive: 3.15%
Cc1cc(C)nc(N2CCN(c3nc(C)cc(C)n3)CC2)n1		inconclusive: 6.04%
CC(=O)Nc1ccc(S(=O)(=O)Nc2ccccc2C(=O)NCc2cccnc2)cc1		inconclusive: -71.7%
CCC(=NC(C)c1ccccc1)c1c(O)n(C)c(=O)n(C)c1=O (centres undefined)		inconclusive: -46.5%
O=C(CCNS(=O)(=O)c1cccc2nsnc12)NCCC1=CCCCC1		inconclusive: 74.1%
COc1ccc(C(=O)Nc2ccccc2C(=O)Nc2cccc(C)n2)cc1		inconclusive: -5.25%
CC1CN(C(=O)CCC(=O)NCc2ccccc2)c2ccccc2S1 (centres undefined)		inconclusive: -6.65%
CC1(C)C(=O)C2(CCCC2)C(=O)OC1c1ccco1 (centres undefined)	inconclusive: 0.58 µM [falling, single point]	
COc1ccc(CCNC(=O)C2CC=CCC2C(=O)O)cc1 (centres undefined)		inactive: 6.12%
CN1C(=O)N(CC(=O)N2CCN(S(=O)(=O)c3ccc4c(c3)CCC4)CC2)C(=O)C12CCCCC2	inconclusive: 0.411 µM [activator, full curve, poor fit]	
CS(=O)(=O)N(CCc1ccccc1)CC(=O)NCc1ccccc1		inconclusive: -9.77%
O=C(O)c1cc(NC(=O)c2cccc(C(=O)Nc3cc(C(=O)O)cc(C(=O)O)c3)c2)cc(C(=O)O)c1		inconclusive: -20.3%
CCC(C)(C)NC(=O)C1CCN(c2nc(OC)nc(OC)n2)CC1	inconclusive: 6.51 µM [cytotoxic, single point]	
CSc1nc(N2CCOCC2)c2c3c(sc2n1)CCCC3	inconclusive: 0.146 µM [falling, full curve, poor fit]	
Cc1ccc2cc(C#N)c(NCCNC(=S)NCCCN(C)C)nc2c1C		inconclusive: 7.34%
COc1ccc(C(NC(=O)c2ccco2)c2ccc(OC)c(OC)c2)cc1OC	inconclusive: 6.51 µM [activator, single point]	
O=C(Cc1sc(Nc2ccccc2)nc1-c1ccccc1)NCc1ccccn1		inconclusive: 25.1%
O=C1C=C(c2ccccc2)OC(=O)C1C(=O)c1ccccc1 (centres undefined)	inconclusive: 0.103 µM [falling, full curve]	

Among those listed so far, these have bromine:
Compound	Potency	lipid storage change, negative = inhibition
CCCNC(=O)CN1CCN(S(=O)(=O)c2ccc(Br)s2)CC1		inconclusive: -19.4%
COc1ccc(S(=O)(=O)N2CCCCC2)cc1NC(=O)c1cncc(Br)c1		inconclusive: 4.57%

A portion from the list above:
Compound	Potency	lipid storage change, negative = inhibition
COc1ccc2c(c1)c(C(=O)N/N=C/c1ccc(Cl)cc1)c(C)n2C		inconclusive: 24.6%
CCOC(=O)c1ccc(NC(=O)Cn2nnc(-c3ccccc3)n2)cc1	inconclusive: 4.61 µM [falling, full curve, poor fit]	
CC(=O)c1sc(NC(=O)c2cccc(N3C(=O)CCC3=O)c2)nc1-c1ccccc1		inconclusive

The results go on:

Compound	Potency	lipid storage change, negative = inhibition
Cc1ccc(NC(=O)CN(C)C(=O)COc2ncnc3ccc(Br)cc23)cc1	inconclusive: 14.6 µM [activator, partial curve]	
C=C(C)CN(CC)C(=O)COc1ccc(S(=O)(=O)Nc2ccc(OC)cc2)cc1		inconclusive: -0.198%
COc1ccc(CC(=O)OCC(=O)c2c(N)n(C)c(=O)n(C)c2=O)cc1OC		inconclusive: 41.3%
CCOc1cc(N2CCOCC2)c(OCC)cc1NC(=O)CSc1n[nH]c(N)n1		inactive: 10.3%
Cc1ccc(C2=Nc3ccccc3N=C(c3ccc([N+](=O)[O-])cc3)C2)c(O)c1	inconclusive: 1.3 µM [rising, partial curve, poor fit]	
CN1CCN(Cc2cc(Cl)c3cccnc3c2OC(=O)c2cccs2)CC1		inconclusive: -4.99%
CNC(=O)c1c(NC(=O)CCS(=O)(=O)c2ccc(C)cc2)sc(C)c1C		inconclusive
COc1ccccc1CCC(=O)OCC(=O)N1CCN(S(=O)(=O)c2ccc(C)cc2C)CC1		inconclusive
Cc1ccc(-n2c(C)cc(C(=O)CSc3nnc4ccccn34)c2C)cc1	inconclusive: 29.1 µM [falling, single point]	
CCSc1nnc([C@@H]2CCCN2C(=O)OC(C)(C)C)o1	active: 23.1 µM	
O=C(CSc1nc2ncc(Cl)cc2[nH]1)Nc1cccc(F)c1	inconclusive: 0.411 µM [falling, partial curve]	
Cc1ccc(S(=O)(=O)N2CCN(S(=O)(=O)c3ccccc3)C2)cc1	inconclusive: 0.13 µM [falling, full curve, poor fit]	
COc1ccc(-c2nnc(NC(=O)C(C)C)s2)c(OC)c1		inconclusive: 49.6%
CCN(CC)S(=O)(=O)c1ccc(N2CCOCC2)c(NC(=O)COc2ccccc2C)c1	inconclusive: 0.103 µM [activator, full curve, poor fit]	
COc1ccc(N(CC(O)CN2CCOCC2)S(=O)(=O)c2ccc(C)cc2)cc1 (centres undefined)	inconclusive: 6.51 µM [falling, single point]	
O=C(Nc1nnc(SCc2c(Cl)cccc2Cl)s1)c1cccc([N+](=O)[O-])c1		inconclusive: 26.9%
CCOC(=O)Cc1nnc2c(Nc3ccccc3F)nc3nonc3n12	inconclusive: 6.51 µM [activator, single point]	
O=C(CSc1nc2ccccc2c(=O)n1CC1CCCO1)NCCc1ccccc1 (centres undefined)	inconclusive: 18.4 µM [falling, single point]	
CCOCCCNC(=O)NC(=O)CN1CCN(S(=O)(=O)c2ccc3c(c2)OCCO3)CC1		inconclusive: -8.38%
Cc1ccc(S(=O)(=O)c2cc3c(=O)n4ccccc4nc3n(CC3CCCO3)c2=N)cc1C (centres undefined)		inconclusive: 14.8%
O=S(=O)(Nc1cccc(-c2ccc(N3CCCCCC3)nn2)c1)c1ccccc1Cl	inconclusive: 18.4 µM [falling, single point]	
O=C(c1ccccc1)c1nc2ccccc2[nH]c1=O		inconclusive: 19.5%
Cc1ccc(C(=O)NCC(=O)OCCCOC(=O)CNC(=O)c2ccc(C)cc2)cc1		inconclusive
N/C(Cn1cncn1)=N\NC(=O)C(=O)Nc1cccc(C(F)(F)F)c1	inconclusive: 29.1 µM [activator, single point]	
